According to PMC3968126:
Results are given in words; binding and its absence hold for the method and conditions named. Binding seen in cells or lysates may run through a third protein. A yes stands for co-enrichment or nearness to the bait. Other partners may have been found. Where a sequence is shown, tags or fusion partners need not be part of it.

Amino acid sequences for entries named in this document (tags omitted).
UniProt P11142: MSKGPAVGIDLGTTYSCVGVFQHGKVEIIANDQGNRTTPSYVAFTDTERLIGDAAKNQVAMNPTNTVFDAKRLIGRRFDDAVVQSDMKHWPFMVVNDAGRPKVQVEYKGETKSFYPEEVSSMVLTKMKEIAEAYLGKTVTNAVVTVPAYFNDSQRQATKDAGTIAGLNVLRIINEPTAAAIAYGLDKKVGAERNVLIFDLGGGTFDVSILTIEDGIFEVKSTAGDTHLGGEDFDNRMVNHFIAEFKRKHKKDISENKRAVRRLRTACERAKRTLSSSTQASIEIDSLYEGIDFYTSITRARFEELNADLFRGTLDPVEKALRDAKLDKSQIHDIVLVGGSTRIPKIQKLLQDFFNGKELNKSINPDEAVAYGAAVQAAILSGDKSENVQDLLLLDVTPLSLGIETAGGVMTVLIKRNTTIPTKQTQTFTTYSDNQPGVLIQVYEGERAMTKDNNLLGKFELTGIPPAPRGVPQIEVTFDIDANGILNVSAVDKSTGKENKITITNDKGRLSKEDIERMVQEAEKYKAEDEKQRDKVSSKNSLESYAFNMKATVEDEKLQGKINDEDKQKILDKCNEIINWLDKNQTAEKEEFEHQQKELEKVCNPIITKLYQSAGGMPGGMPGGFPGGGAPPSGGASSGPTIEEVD

Target: T1, B14-3xFLAG (human) (UniProt Q8TBM8)
T1 sequence: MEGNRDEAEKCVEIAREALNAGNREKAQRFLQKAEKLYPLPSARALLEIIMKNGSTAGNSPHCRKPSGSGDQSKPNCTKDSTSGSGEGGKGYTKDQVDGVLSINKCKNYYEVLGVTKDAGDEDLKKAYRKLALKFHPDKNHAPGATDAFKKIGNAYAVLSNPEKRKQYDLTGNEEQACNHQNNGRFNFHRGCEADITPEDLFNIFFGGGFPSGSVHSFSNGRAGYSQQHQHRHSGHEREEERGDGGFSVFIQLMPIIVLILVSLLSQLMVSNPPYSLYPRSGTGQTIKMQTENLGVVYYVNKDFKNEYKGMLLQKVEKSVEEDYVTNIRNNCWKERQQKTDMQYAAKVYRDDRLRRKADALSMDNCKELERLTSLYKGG
Assay: affinity purification with mass spectrometry; B14-3xFLAG at near endogenous level in Flp-In T-REx 293 cells; 0.1% digitonin lysate; anti-FLAG M2 agarose, 3xFLAG peptide elution, silver-stained bands excised for MS; control beads pre-blocked with 3xFLAG peptide

binding: binds
Substance: Hsc70 (from UniProt P11142 1-646)
